Results from patent US20240279309A1.
These are yes or no findings as the source states them, for the method shown. Some binding calls cover weakened binding; strength is not graded here.

Protein sequences, listed by entry. Tags and fused reporters are not part of them. Lines headed by an entry give the natural chain unless they say otherwise; changes in a name come on top.
UniProt P25942: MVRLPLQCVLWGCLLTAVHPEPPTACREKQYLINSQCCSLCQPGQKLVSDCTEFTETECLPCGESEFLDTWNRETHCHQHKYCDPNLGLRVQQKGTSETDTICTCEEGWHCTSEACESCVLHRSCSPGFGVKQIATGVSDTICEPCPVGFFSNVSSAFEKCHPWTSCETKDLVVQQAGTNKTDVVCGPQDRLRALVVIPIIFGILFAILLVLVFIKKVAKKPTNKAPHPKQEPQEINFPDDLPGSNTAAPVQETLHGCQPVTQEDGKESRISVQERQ

Columns and labels:
[1] = target: biotinylated human CD40 (recombinant human CD40 target) (human) (UniProt P25942); assay: crude extract HTRF, 1.25 nM biotinylated human CD40
[2] = target: biotinylated human CD40 (recombinant human CD40 target) (human) (UniProt P25942); assay: crude extract HTRF on recombinant human CD40
[3] = target: human tumor necrosis factor receptor superfamily member 5 (hCD40), recombinant, expressed in Hi5 cells (human) (UniProt P25942); assay: X-ray crystallography of the complex (figure legend)
[4] = target: human tumor necrosis factor receptor superfamily member 5 (hCD40), recombinant, expressed in Hi5 cells (human) (UniProt P25942); assay: X-ray crystallography of the complex, 2.29 A

Binder | binding [1] | binding [2] | binding [3] | binding [4]
ankyrin repeat domain of SEQ ID NO: 27 (designed binder) MRGSHHHHHHGSDLGYKLLWAAYAGQDDEVRILLVAGADVNAKDSYGRTPLHYAANAGHLEIVEVLLKAGADVNAKDIQGETPLHHAARKGHLEIVEVLLKAGADVNAQDKTGDTPADLAAFVGHEDIAEVLQKAA | binds | binds | – | –
ankyrin repeat domain of SEQ ID NO: 18 (designed binder) MRGSHHHHHHGSDLGKKLLQAARAGQLDEVRILLATGADVNAKDEIGYTPLHWAAYEGHLEIVEVLLKAGADVNAKDEHGRTPLHLAAYKGHLEIVEVLLKAGADVNAKDSWGRTPLHIAARAGHLEIVEVLLKSGADVNAQDKSGKTPADLAARAGHQDIAEVLQKAA | binds | binds | – | –
ankyrin repeat domain of SEQ ID NO: 20 (designed binder) MRGSHHHHHHGSDLGKKLLQAARVGQLDEVRELLKAGADVNAKDQLGWTPLHLAAYEGHLEIVEVLLKAGADVNAKDEKGRTPLHLAAYKGHLEIVEVLLKAGADVNAKDSWGRTPLHIAARAGHLEIVEVLLKSGADVNAQDKSGKTPADLAARAGHQDIAEVLQKAA | binds | binds | – | –
ankyrin repeat domain of SEQ ID NO: 21 (designed binder) MRGSHHHHHHGSDLGKKLLQAARAGQLDEVRELLKAGADVNAKDVWGWTPLHLAAFEGHLEIVEVLLKAGADVNAKDHHGRTPLHLAAQYGHLEIVEVLLKAGADVNAKDRYGQTPLHVAAEHGHLEIVEVLLKAGADVNAQDKSGKTPADLAARAGHQDIAEVLQKAA | binds | binds | – | –
ankyrin repeat domain of SEQ ID NO: 19 (designed binder) MRGSHHHHHHGSDLGKKLLQAARAGQLDEVRELLKAGADVNAKDTIGWTPLHLAAYRGHLEIVEVLLKAGADVNAKDEHGRTPLHLAAHAGHLEIVEVLLKAGADVNAKDAWGHTPLHIAARTGHLEIVEVLLKAGADVNAQDKSGKTPADLAARAGHQDIAEVLQKAA | binds | binds | – | –
ankyrin repeat domain of SEQ ID NO: 25 (designed binder) MRGSHHHHHHGSDLGKKLLQATRAGQLDEVRELLKAGADVNAKDEFGRTPLHLAAQYGHLEIVEVLLKAGADVNAKDAHGVTPLHVAAFRGHLEIVEVLLKAGADVNAKDRSGLTPLHLAAWQGHLEIVEVLLKAGADVNAQDKSGKTPADLAARAGHQDIAEVLQKAA | binds | binds | – | –
ankyrin repeat domain of SEQ ID NO: 26 (designed binder) MRGSHHHHHHGSDLGKKLLQAARAGQLDEVRELLKAGADVNAKDTYGRTPLHIAAQYGHLEIVEVLLKAGADVNAKDHRGVTPLHVAAYKGHLEIVEVLLKAGADVNAKDVTGVTPLHVAAFKGHLEIVEVLLKAGADVNAQDKSGKTPADLTARAGHQDIAEVLQKAA | binds | binds | – | –
ankyrin repeat domain of SEQ ID NO: 30 (designed binder) MRGSHHHHHHGSDLGHKLLYAAYTGQDDEVRILLAAGADVNAKDSVGYTPLHYAAHAGHLEIVEVLLKAGADVNAKDVFGRTPLHSAALHGHLEIVEVLLKAGADVNAQDTRGRTPADLAAILGHEDIAEVLQKAA | binds | binds | – | –
ankyrin repeat domain of SEQ ID NO: 16 (designed binder) MRGSHHHHHHGSDLGFKLLAAAFEGQDDEVRILLAAGADVNAKDKVGYTPLHYAAHAGHLEIVEVLLKAGADVNAKDVFGRTPLHSAALHGHLEIVEVLLKAGADVNAQDTRGRTPADLAAILGHEDIAEVLQKAA | binds | binds | – | –
ankyrin repeat domain of SEQ ID NO: 35 (designed binder) MRGSHHHHHHGSDLGKKLLQAARAGQLDEVRELLKAGADVNAKDTWGFTPLHIATESGHLEIVEVLLKAGADVNAKDVQGRTPLHIAAHSGHLEIVEVLLKAGADVNAKDFRGWTPLHLAAWSGHLEIVEVLLKAGADVNAQDKSGKTPADLAARAGHQDIAEVLQKAA | binds | binds | – | –
ankyrin repeat domain of SEQ ID NO: 32 (designed binder) MRGSHHHHHHGSDLGKKLLQAARAGQLDEVRELLKAGADVNAKDTWGFTPLHIAAESGHLEIVEVLLKAGADVNAKDVQGRTPLHIAAHSGHLEIVEVLLKVGADVNAKDFRGWTPLHLAAWSGHLEIVEVLLKAGADVNAQDKSGKTPADLAARAGHQDIAEVLQKAA | binds | binds | – | –
DARPin® protein #29 (SEQ ID NO: 29) (designed binder) MRGSHHHHHHGSDLGKKLLQAARAGQLDEVRELLKAGADVNAKDTWGFTPLHIAAESGHLEIVEVLLKAGADVNAKDVQGRTPLHIAAHSGHLEIVEVLLKAGADVNAKDFRGWTPLHLAAWSGHLEIVEILLKAGADVNAQDKSGKTPADLAARAGHQDIAEVLQKAA | binds | binds | binds | binds
ankyrin repeat domain of SEQ ID NO: 24 (designed binder) MRGSHHHHHHGSDLGKKLLQAARAGQLDEVRELLKAGADVNAKDTWGFTPLHIAAESGHLEIVEVLLKAGADVNAKDVQGRTPLHIAAHSGHLEIVEVLLKAGADVNAKDFRGWTPLHLAAWSGHLEIVGVLLKAGADVNAQDKSGKTPADLAARAGHQDIAEVLQKAA | binds | binds | – | –

Second part, led by results:

binding [1] | binding [2] | Binder | binding [3] | binding [4]
binds | binds | ankyrin repeat domain of SEQ ID NO: 22 (designed binder) MRGSHHHHHHGSDLGKKLLQAARAGQLDEVRELLKAGADVNAKDEFGQTPLHIAAKSGHLEIVEVLLKAGADVNAKDVYGRTPLHLAAQYGHLEIVEVLLKAGADVNAKDTQGVTPLHVAAFKGHLEIVEVLLKAGADVNAQDKSGKTPADLAARAGHQDIAEVLQKAA | – | –
binds | binds | ankyrin repeat domain of SEQ ID NO: 28 (designed binder) MRGSHHHHHHGSALGKKLLQAARAGQLDEVRELLKAGADVNAKDQEGRTPLHLAARSGHLEIVEVLLKAGADVNAKDTFGITPLHLAALPRSPEIVEVLLKAGADVNAKDQFGRTPLHIAAQSGHLEIVEVLLKAGADVNAQDKSGKTPADLAARAGHQDIAEVLQKAA | – | –
binds | binds | ankyrin repeat domain of SEQ ID NO: 31 (designed binder) MRGSHHHHHHGSDLGKKLLWAAAAGQLDEVRELLKAGADVNAKDHVGYTPLHIAALAGHLEIVEVLLKAGEDVNAKDHKGRTPLHVAAAVGHLEIVEVLLKAGADVNAKDQQGVTPLHIAAITGHLEIVEVLLKAGADVNAQDKSGKTPADLAARAGHQDIAEVLQKAA | – | –
binds | binds | ankyrin repeat domain of SEQ ID NO: 17 (designed binder) MRGSHHHHHHGSDLGKKLLQAARAGQLDEVRELLKAGADVNAKDSEGSTPLHLAALKGHLEIVEVLLKAGADVNAKDWQGQTPLHLAAFEGHLEIVEVLLKAGADVNAKDRWGETPLHIAAKHGHLEIVEVLLKAGADVNAQDKSGKTPADLAARAGHRDIAEVLQKAA | – | –
binds | binds | ankyrin repeat domain of SEQ ID NO: 34 (designed binder) MRGSHHHHHHGSDLGKKLLQAARAGQLDEVRELLKAGADVNAKDEWGRTPLHLAAQYGHLEIVEVLLKAGADVNAKDHRGVTPLHVAAYKGHLEIVEVLLKAGADVNAKDVTGVTPLHVAAFKGHLEIVEVLLKAGADVNAQDKSGKTPADLAARAGHQDIAEVLQKAA | – | –
binds | binds | ankyrin repeat domain of SEQ ID NO: 33 (designed binder) MRGSHHHHHHGSDLGKKLLQAARAGQLDEVRELLKAGADVNAKDTYGRTPLHIAAQYGHLEIVEVLLKAGADVNAKDHRGVTPLHVAAYKGHLEIVEVLLKAGADVNAKDVTGVTPLHVAAFKGHLEIVEVLLKAGADVNAQDKSGKTPADLAARAGHQDIAEVLQKAA | – | –
binds | binds | ankyrin repeat domain of SEQ ID NO: 23 (designed binder) MRGSHHHHHHGSDLGKKLLQAVRAGQLDEVRELLKAGADVNAKDTWGFTPLHIAAESGHLEIVEVLLKAGADVNAKDVQGRTPLHIAAHSGHLEIVEVLLKAGADVNAKDFRGWTPLHLAAWSGHLEIVEVLLKAGADVNAQDKSGKTPADLAARAGHQDIAEVLQKAA | – | –
